Holding throughout (format): cell-based
Test [1] concerns the target T1, RNA polymerase II (Mus musculus) (UniProt P08775+Q8CFI7+P97760+A0A3Q4L2S8+Q80UW8+P61219+P62488+Q923G2+P60898+O08740+Q63871+P62876). The test can be described thus: Inhibition of RNA polymerase II in mouse B16-F1 migrating cells assessed as fold change in Sema3f-RNA stability at 0.1 mM measured by ChIP-seq analysis relative to control cells.
The target in test [2] is T1, RNA polymerase II (Mus musculus). The test can be described thus: Inhibition of RNA polymerase II in mouse B16-F1 migrating cells assessed as fold change in Tuba1a-RNA stability at 0.1 mM measured by ChIP-seq analysis relative to control cells.
Test [3] shares this target. The test can be described thus: Inhibition of RNA polymerase II in mouse B16-F1 migrating cells assessed as fold change in Palm-RNA stability at 0.1 mM measured by ChIP-seq analysis relative to control cells.
Test [4] has the same target. The test can be described thus: Inhibition of RNA polymerase II in mouse B16-F1 migrating cells assessed as fold change in B3gnt3-RNA stability at 0.1 mM measured by ChIP-seq analysis relative to control cells.
Test [5] shares this target. The test can be described thus: Inhibition of RNA polymerase II in mouse B16-F1 migrating cells assessed as fold change in Polr2i-RNA stability at 0.1 mM measured by ChIP-seq analysis relative to control cells.
Test [6] shares this target. The test can be described thus: Inhibition of RNA polymerase II in mouse B16-F1 migrating cells assessed as fold change in Rps28-RNA stability at 0.1 mM measured by ChIP-seq analysis relative to control cells.
Test [7] has the same target. The test can be described thus: Inhibition of RNA polymerase II in mouse B16-F1 migrating cells assessed as fold change in Naxe-RNA stability at 0.1 mM measured by ChIP-seq analysis relative to control cells.
Test [8] has the same target. The test can be described thus: Inhibition of RNA polymerase II in mouse B16-F1 migrating cells assessed as fold change in Cotl1-RNA stability at 0.1 mM measured by ChIP-seq analysis relative to control cells.
Test [9] has the same target. The test can be described thus: Inhibition of RNA polymerase II in mouse B16-F1 migrating cells assessed as fold change in Eno1-RNA stability at 0.1 mM measured by ChIP-seq analysis relative to control cells.
For test [10] the target is unchanged. The test can be described thus: Inhibition of RNA polymerase II in mouse B16-F1 migrating cells assessed as fold change in Fam50a-RNA stability at 0.1 mM measured by ChIP-seq analysis relative to control cells.
The target is the same in test [11]. The test can be described thus: Inhibition of RNA polymerase II in mouse B16-F1 migrating cells assessed as fold change in Cyb561d2-RNA stability at 0.1 mM measured by ChIP-seq analysis relative to control cells.
Test [12] has the same target. The test can be described thus: Inhibition of RNA polymerase II in mouse B16-F1 migrating cells assessed as fold change in Smarcb1-RNA stability at 0.1 mM measured by ChIP-seq analysis relative to control cells.
For test [13] the target is unchanged. The test can be described thus: Inhibition of RNA polymerase II in mouse B16-F1 migrating cells assessed as fold change in Mrpl20-RNA stability at 0.1 mM measured by ChIP-seq analysis relative to control cells.
Test [14] has the same target. The test can be described thus: Inhibition of RNA polymerase II in mouse B16-F1 migrating cells assessed as fold change in Renbp-RNA stability at 0.1 mM measured by ChIP-seq analysis relative to control cells.
The target is the same in test [15]. The test can be described thus: Inhibition of RNA polymerase II in mouse B16-F1 migrating cells assessed as fold change in Impa1-RNA stability at 0.1 mM measured by ChIP-seq analysis relative to control cells.
For test [16] the target is unchanged. The test can be described thus: Inhibition of RNA polymerase II in mouse B16-F1 migrating cells assessed as fold change in Usp47-RNA stability at 0.1 mM measured by ChIP-seq analysis relative to control cells.
For test [17] the target is unchanged. The test can be described thus: Inhibition of RNA polymerase II in mouse B16-F1 migrating cells assessed as fold change in Ythdf3-RNA stability at 0.1 mM measured by ChIP-seq analysis relative to control cells.
For test [18] the target is unchanged. The test can be described thus: Inhibition of RNA polymerase II in mouse B16-F1 migrating cells assessed as fold change in Fer-RNA stability at 0.1 mM measured by ChIP-seq analysis relative to control cells.
For test [19] the target is unchanged. The test can be described thus: Inhibition of RNA polymerase II in mouse B16-F1 migrating cells assessed as fold change in Zeb2-RNA stability at 0.1 mM measured by ChIP-seq analysis relative to control cells.
Test [20] has the same target. The test can be described thus: Inhibition of RNA polymerase II in mouse B16-F1 migrating cells assessed as fold change in Sp4-RNA stability at 0.1 mM measured by ChIP-seq analysis relative to control cells.
For test [21], the target named is Histone-lysine N-methyltransferase EZH2 (Mus musculus) (UniProt Q61188). The test can be described thus: Inhibition of EZH2 in mouse B16-F1 migrating cells assessed as fold change in H3K27me3-independent regulated Mgarp-mRNA expression at 3 uM measured by ChIP-seq analysis relative to control cells.
The target is the same in test [22]. The test can be described thus: Inhibition of EZH2 in mouse B16-F1 migrating cells assessed as fold change in H3K27me3-independent regulated Sgms2-mRNA expression at 3 uM measured by ChIP-seq analysis relative to control cells.
For test [23] the target is unchanged. The test can be described thus: Inhibition of EZH2 in mouse B16-F1 migrating cells assessed as fold change in H3K27me3-independent regulated Map2k3-mRNA expression at 3 uM measured by ChIP-seq analysis relative to control cells.
Test [24] has the same target. The test can be described thus: Inhibition of EZH2 in mouse B16-F1 migrating cells assessed as fold change in H3K27me3-buffered regulated Gprc5a-mRNA expression at 3 uM measured by ChIP-seq analysis relative to control cells.
Test [25] shares this target. The test can be described thus: Inhibition of EZH2 in mouse B16-F1 migrating cells assessed as fold change in H3K27me3-buffered regulated H2-K1-mRNA expression at 3 uM measured by ChIP-seq analysis relative to control cells.
Test [26] has the same target. The test can be described thus: Inhibition of EZH2 in mouse B16-F1 migrating cells assessed as fold change in H3K27me3-buffered regulated Anxa2-mRNA expression at 3 uM measured by ChIP-seq analysis relative to control cells.
The target is the same in test [27]. The test can be described thus: Inhibition of EZH2 in mouse B16-F1 migrating cells assessed as fold change in H3K27me3-buffered regulated Mki67-mRNA expression at 3 uM measured by ChIP-seq analysis relative to control cells.
For test [28] the target is unchanged. The test can be described thus: Inhibition of EZH2 in mouse B16-F1 migrating cells assessed as fold change in H3K27me3-buffered regulated Ccp110-mRNA expression at 3 uM measured by ChIP-seq analysis relative to control cells.
For test [29] the target is unchanged. The test can be described thus: Inhibition of EZH2 in mouse B16-F1 migrating cells assessed as fold change in H3K27me3-buffered regulated Fgd6-mRNA expression at 3 uM measured by ChIP-seq analysis relative to control cells.
For test [30] the target is unchanged. The test can be described thus: Inhibition of EZH2 in mouse B16-F1 migrating cells assessed as fold change in H3K27me3-buffered regulated Palb2-mRNA expression at 3 uM measured by ChIP-seq analysis relative to control cells.

The chains behind the UniProt entries cited, without tags or fusion partners.
UniProt Q61188, whole entry: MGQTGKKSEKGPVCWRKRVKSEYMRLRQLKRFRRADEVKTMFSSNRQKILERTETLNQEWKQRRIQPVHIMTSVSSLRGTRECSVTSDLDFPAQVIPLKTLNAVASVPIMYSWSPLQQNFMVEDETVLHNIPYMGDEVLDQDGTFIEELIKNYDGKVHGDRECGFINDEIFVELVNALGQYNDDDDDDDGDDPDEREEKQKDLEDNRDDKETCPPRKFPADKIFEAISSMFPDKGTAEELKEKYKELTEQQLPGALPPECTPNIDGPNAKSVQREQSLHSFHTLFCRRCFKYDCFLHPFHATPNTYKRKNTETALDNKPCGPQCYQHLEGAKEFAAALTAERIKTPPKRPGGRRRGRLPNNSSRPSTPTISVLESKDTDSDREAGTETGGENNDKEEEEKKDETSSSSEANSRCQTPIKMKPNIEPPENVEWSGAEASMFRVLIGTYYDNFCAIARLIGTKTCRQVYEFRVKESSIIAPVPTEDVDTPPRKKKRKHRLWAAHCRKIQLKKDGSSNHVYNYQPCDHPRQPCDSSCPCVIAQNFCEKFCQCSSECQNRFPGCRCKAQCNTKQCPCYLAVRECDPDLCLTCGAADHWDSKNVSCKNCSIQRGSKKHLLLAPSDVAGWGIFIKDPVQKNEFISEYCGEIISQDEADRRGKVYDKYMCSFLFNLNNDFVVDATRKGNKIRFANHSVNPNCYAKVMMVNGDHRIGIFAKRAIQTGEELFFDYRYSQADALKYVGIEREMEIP

The source gives many values for each of these; only a part stands here.

Regarding `OC[C@H]1O[C@@H](n2cnc3cc(Cl)c(Cl)cc32)[C@H](O)[C@@H]1O`, the log2FC stood at 0.98 in test [1]; 0.63 in [2]; 0.63 in test [3]; 0.61 in test [4]; 0.52 in [5]; 0.51 in test [6]. Moreover, the log2FC was 0.5 in test [7]; 0.5 in test [8]; 0.47 in test [9]; 0.45 in [10]; 0.45 in test [11]; 0.43 in test [12]. Further, the log2FC in test [13] is 0.43; in [14] it was 0.42; in [15] it was -0.39; in test [16] it was -0.4; in test [17] it was -0.41; in test [18], -0.45. Moreover, the log2FC was -0.77 in test [19] and -0.78 in test [20].

With `CCCc1cc(C)[nH]c(=O)c1CNC(=O)c1cc(-c2ccnc(N3CCN(C)CC3)c2)cc2c1cnn2C(C)C`, the log2FC in test [21] turned out to be 0.77; in [22], 0.57; in test [23], 0.48; in test [24], 2.18; in test [25] it was 0.45; in test [26], 0.39. The log2FC in test [27] is -0.39; in test [28] it was -0.39; in test [29], -0.44; in test [30], -0.51.

The record behind these values is ChEMBL document CHEMBL5674883, “The Heterochromatin Landscape in Migrating Cells and the Importance of H3K27me3 for Associated Transcriptome Alterations” (Cells, 2018).
